Among the data in publication doi:10.1101/2023.05.26.542337 (bioRxiv, 2023) are binding values, retold here.

The chains behind the UniProt entries cited, without tags or fusion partners.
UniProt Q51473: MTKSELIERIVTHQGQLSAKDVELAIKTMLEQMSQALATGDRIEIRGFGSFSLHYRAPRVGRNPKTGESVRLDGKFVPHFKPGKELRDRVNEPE
UniProt Q51472: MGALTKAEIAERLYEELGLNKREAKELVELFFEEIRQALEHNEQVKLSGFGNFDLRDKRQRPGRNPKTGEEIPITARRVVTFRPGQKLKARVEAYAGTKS

These are yes or no findings as the source states them, for the method shown. Some binding calls cover weakened binding; strength is not graded here.

For this assay, the target named is Integration host factor subunit beta (IHFβ), P. aeruginosa (P. aeruginosa) (UniProt Q51473). The experiment in a line: cryo-EM structure.

As for “Integration host factor subunit alpha (IHFα), P. aeruginosa (from UniProt Q51472 1-100)”, the binding result is “binds”.
